Among the data in paper PMC8609358 are binding values, retold here.

Protein sequences, listed by entry. Tags and fused reporters are not part of them. Lines headed by an entry give the natural chain unless they say otherwise; changes in a name come on top.
UniProt O51305: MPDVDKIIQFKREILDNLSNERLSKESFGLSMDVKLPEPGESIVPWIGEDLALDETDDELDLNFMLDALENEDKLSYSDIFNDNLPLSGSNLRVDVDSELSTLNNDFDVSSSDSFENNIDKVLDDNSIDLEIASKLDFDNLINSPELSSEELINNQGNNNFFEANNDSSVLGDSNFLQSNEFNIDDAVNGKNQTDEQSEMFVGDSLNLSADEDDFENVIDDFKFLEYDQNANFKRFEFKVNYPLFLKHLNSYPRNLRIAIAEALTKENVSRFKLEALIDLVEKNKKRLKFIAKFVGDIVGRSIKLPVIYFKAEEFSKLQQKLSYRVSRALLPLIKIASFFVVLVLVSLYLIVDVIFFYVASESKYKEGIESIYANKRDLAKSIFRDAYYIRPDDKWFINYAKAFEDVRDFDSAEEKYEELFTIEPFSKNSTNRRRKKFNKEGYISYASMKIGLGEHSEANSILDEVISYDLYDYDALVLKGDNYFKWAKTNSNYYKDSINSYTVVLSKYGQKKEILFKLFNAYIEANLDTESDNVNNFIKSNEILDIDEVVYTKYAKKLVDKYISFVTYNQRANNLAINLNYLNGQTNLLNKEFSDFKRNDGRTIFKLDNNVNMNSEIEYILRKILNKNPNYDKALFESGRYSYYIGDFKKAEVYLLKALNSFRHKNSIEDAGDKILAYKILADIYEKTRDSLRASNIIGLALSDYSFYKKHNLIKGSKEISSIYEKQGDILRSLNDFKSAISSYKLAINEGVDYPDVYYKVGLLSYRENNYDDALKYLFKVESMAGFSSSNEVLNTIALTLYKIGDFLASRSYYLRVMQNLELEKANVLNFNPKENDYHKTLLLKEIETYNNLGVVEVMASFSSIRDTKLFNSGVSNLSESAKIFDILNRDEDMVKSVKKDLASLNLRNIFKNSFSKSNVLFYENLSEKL

These are yes or no findings as the source states them, for the method shown. Binding can be weak; no strength is given.

This experiment concerns the target MBP-MotB (B. burgdorferi) (UniProt Q57371). Briefly: far-Western, overlay or dot blot; 1 μg purified MBP-tagged protein run on SDS-PAGE and transferred to PVDF; blocked in 5% skim milk, 10 mM Tris, 150 mM NaCl, 0.3% Tween 20 pH 7.4; incubated overnight with purified 1×FLAG-tagged protein at 2 μg/ml; detected with anti-FLAG M2; both purified.

Consider “1×FLAG-tagged FlcA (BB0326), C terminus aa 360 to 931 (from UniProt O51305) (domain or fragment)”, for which the binding result is listed as “binds”.
